The supplement of paper PMC8728848
Some of the results follow.

Tests used:
Test in all cases: glycan array binding signal (z-score within array); higher = stronger binding
Conditions in all cases: glycan notation: IUPAC condensed, linker removed; mutation: R276L
Fuc(a1-2)Gal = biological target: Fuc(a1-2)Gal
Procedure, shortened: (§1)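 The binding signal is a Z-score computed within each array and averaged over linkers. Arrays of the same protein sequence at different concentrations or buffers were also averaged together. Data originate from 3228 arrays in the Consortium for Functional Glycomics database, kept only where the protein sequence was available.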

Fuc(a1-2)Gal(b1-3)GalNAc = biological target: Fuc(a1-2)Gal(b1-3)GalNAc
Procedure, shortened: as §1

[1] = biological target: Fuc(a1-2)Gal(b1-3)GalNAc(a1-3)[Fuc(a1-2)]Gal(b1-4)Glc
Procedure, shortened: as §1

[2] = biological target: Fuc(a1-2)Gal(b1-3)GalNAc(a1-3)[Fuc(a1-2)]Gal(b1-4)GlcNAc
Procedure, shortened: as §1

[3] = biological target: Fuc(a1-2)Gal(b1-3)GalNAc(b1-3)Gal
Procedure, shortened: as §1

[4] = biological target: Fuc(a1-2)Gal(b1-3)GalNAc(b1-3)Gal(a1-4)Gal(b1-4)Glc
Procedure, shortened: as §1

[5] = biological target: Fuc(a1-2)Gal(b1-3)GalNAc(b1-4)[Neu5Ac(a2-3)]Gal(b1-4)Glc
Procedure, shortened: as §1

Fuc(a1-2)Gal(b1-3)GlcNAc = biological target: Fuc(a1-2)Gal(b1-3)GlcNAc
Procedure, shortened: as §1

[6] = biological target: Fuc(a1-2)Gal(b1-3)GlcNAc(b1-2)Man(a1-3)[Fuc(a1-2)Gal(b1-3)GlcNAc(b1-2)Man(a1-6)]Man(b1-4)GlcNAc(b1-4)GlcNAc
Procedure, shortened: as §1

[7] = biological target: Fuc(a1-2)Gal(b1-3)GlcNAc(b1-2)Man(a1-3)[Fuc(a1-2)Gal(b1-3)GlcNAc(b1-2)Man(a1-6)]Man(b1-4)GlcNAc(b1-4)[Fuc(a1-6)]GlcNAc
Procedure, shortened: as §1

[8] = biological target: Fuc(a1-2)Gal(b1-3)GlcNAc(b1-3)Gal(b1-4)Glc
Procedure, shortened: as §1

[9] = biological target: Fuc(a1-2)Gal(b1-3)GlcNAc(b1-3)GalNAc
Procedure, shortened: as §1

[10] = biological target: Fuc(a1-2)Gal(b1-3)GlcNAc(b1-3)[Fuc(a1-2)Gal(b1-3)GlcNAc(b1-6)]GalNAc
Procedure, shortened: as §1

[11] = biological target: Fuc(a1-2)Gal(b1-3)GlcNAc(b1-3)[Gal(b1-4)GlcNAc(b1-6)]Gal(b1-4)Glc
Procedure, shortened: as §1

[12] = biological target: Fuc(a1-2)Gal(b1-3)GlcNAc(b1-3)[Neu5Ac(a2-6)Gal(b1-4)GlcNAc(b1-6)]Gal(b1-4)Glc
Procedure, shortened: as §1

[13] = biological target: Fuc(a1-2)Gal(b1-3)GlcNAc6S
Procedure, shortened: as §1

[14] = biological target: Fuc(a1-2)Gal(b1-3)[Fuc(a1-4)]GlcNAc
Procedure, shortened: as §1

[15] = biological target: Fuc(a1-2)Gal(b1-3)[Fuc(a1-4)]GlcNAc(b1-2)Man(a1-3)[Fuc(a1-2)Gal(b1-3)[Fuc(a1-4)]GlcNAc(b1-2)Man(a1-3)]Man(b1-4)GlcNAc(b1-4)GlcNAc
Procedure, shortened: as §1

[16] = biological target: Fuc(a1-2)Gal(b1-3)[Fuc(a1-4)]GlcNAc(b1-2)Man(a1-3)[Fuc(a1-2)Gal(b1-3)[Fuc(a1-4)]GlcNAc(b1-2)Man(a1-6)]Man(b1-4)GlcNAc(b1-4)[Fuc(a1-6)]GlcNAc(b1-4)[Fuc(a1-6)]GlcNAc
Procedure, shortened: as §1

[17] = biological target: Fuc(a1-2)Gal(b1-3)[Fuc(a1-4)]GlcNAc(b1-3)[Fuc(a1-3)[Gal(b1-4)]GlcNAc(b1-6)]Gal(b1-4)Glc
Procedure, shortened: as §1

[18] = biological target: Fuc(a1-2)Gal(b1-3)[Fuc(a1-4)]GlcNAc(b1-3)[Gal(b1-4)GlcNAc(b1-6)]Gal(b1-4)Glc
Procedure, shortened: as §1

[19] = biological target: Fuc(a1-2)Gal(b1-4)Fuc(a1-3)]GlcNAc(b1-2)Man(a1-3)[Fuc(a1-2)Gal(b1-4)[Fuc(a1-3)]GlcNAc(b1-2)Man(a1-6)]Man(b1-4)GlcNAc(b1-4)GlcNAc
Procedure, shortened: as §1

Fuc(a1-2)Gal(b1-4)Glc = biological target: Fuc(a1-2)Gal(b1-4)Glc
Procedure, shortened: as §1

Fuc(a1-2)Gal(b1-4)Glc6S = biological target: Fuc(a1-2)Gal(b1-4)Glc6S
Procedure, shortened: as §1

Fuc(a1-2)Gal(b1-4)GlcNAc = biological target: Fuc(a1-2)Gal(b1-4)GlcNAc
Procedure, shortened: as §1

[20] = biological target: Fuc(a1-2)Gal(b1-4)GlcNAc(b1-2)Man
Procedure, shortened: as §1

[21] = biological target: Fuc(a1-2)Gal(b1-4)GlcNAc(b1-2)Man(a1-3)[Fuc(a1-2)Gal(b1-4)GlcNAc(b1-2)Man(a1-6)]Man(b1-4)GlcNAc(b1-4)GlcNAc
Procedure, shortened: as §1

[22] = biological target: Fuc(a1-2)Gal(b1-4)GlcNAc(b1-2)Man(a1-3)[Fuc(a1-2)Gal(b1-4)GlcNAc(b1-2)Man(a1-6)]Man(b1-4)GlcNAc(b1-4)[Fuc(a1-6)]GlcNAc
Procedure, shortened: as §1

[23] = biological target: Fuc(a1-2)Gal(b1-4)GlcNAc(b1-2)[Fuc(a1-2)Gal(b1-4)GlcNAc(b1-4)]Man(a1-3)[Fuc(a1-2)Gal(b1-4)GlcNAc(b1-2)Man(a1-6)]Man(b1-4)GlcNAc(b1-4)GlcNAc
Procedure, shortened: as §1

[24] = biological target: Fuc(a1-2)Gal(b1-4)GlcNAc(b1-3)Gal(b1-4)GlcNAc
Procedure, shortened: as §1

B1: SUN4P (Saccharomyces cerevisiae), P53616 (protein)
chain: MGSSHHHHHHSSGLVPRGSHNGSIYGDLADFSGPYEKFEDGTIPCGQFPSGQGVIPISWLDEGGWSGVENTDTSTGGSCKEGSYCSYACQPGMSKTQWPSDQPSDGRSIGGLLCKDGYLYRSNTDTDYLCEWGVDAAYVVSELSNDVAICLTDYPGTENMVIPTYVQAGDSLPLTVVDQDTYYTWQGLKTSAQYYVNNAGISVEDACVWGSSSSGVGNWAPLNFGAGSSDGVAYLSLIPNPNNGNALNFNVKIVAADDSSTVNGECIYENGSFSGGSDGCTVSVTAGKAKFVLYN
glycan array binding signal (z-score) (Fuc(a1-2)Gal): -0.421 | glycan array binding signal (z-score) (Fuc(a1-2)Gal(b1-3)GalNAc): -0.45 | glycan array binding signal (z-score) [1]: -1.53 | glycan array binding signal (z-score) [2]: -1.35 | glycan array binding signal (z-score) [3]: 0.452 | glycan array binding signal (z-score) [4]: -0.695 | glycan array binding signal (z-score) [5]: -0.582 | glycan array binding signal (z-score) (Fuc(a1-2)Gal(b1-3)GlcNAc): -0.181 | glycan array binding signal (z-score) [6]: -0.418 | glycan array binding signal (z-score) [7]: -0.67 | glycan array binding signal (z-score) [8]: -0.334 | glycan array binding signal (z-score) [9]: -0.616 | glycan array binding signal (z-score) [10]: -0.484 | glycan array binding signal (z-score) [11]: 0.246 | glycan array binding signal (z-score) [12]: -0.454 | glycan array binding signal (z-score) [13]: -1.78 | glycan array binding signal (z-score) [14]: 0.13 | glycan array binding signal (z-score) [15]: -0.222 | glycan array binding signal (z-score) [16]: 1.49 | glycan array binding signal (z-score) [17]: -1.15 | glycan array binding signal (z-score) [18]: -0.39 | glycan array binding signal (z-score) [19]: 0.418 | glycan array binding signal (z-score) (Fuc(a1-2)Gal(b1-4)Glc): -0.423 | glycan array binding signal (z-score) (Fuc(a1-2)Gal(b1-4)Glc6S): -0.716 | glycan array binding signal (z-score) (Fuc(a1-2)Gal(b1-4)GlcNAc): -0.222 | glycan array binding signal (z-score) [20]: -0.082 | glycan array binding signal (z-score) [21]: -0.72 | glycan array binding signal (z-score) [22]: -0.278 | glycan array binding signal (z-score) [23]: 1.31 | glycan array binding signal (z-score) [24]: -0.53
